Test results reported in paper PMC7677509.
Results are given in words; binding and its absence hold for the method and conditions named. In cells and extracts the contact can be indirect. Some results given as binding are weak or reduced against the parent protein; the word gives no strength. Tags and fused reporters may be left off the sequences shown.

Amino acid sequences for entries named in this document (tags omitted). A change or cut given only in a name is not applied to a line headed by its entry.
UniProt P05556: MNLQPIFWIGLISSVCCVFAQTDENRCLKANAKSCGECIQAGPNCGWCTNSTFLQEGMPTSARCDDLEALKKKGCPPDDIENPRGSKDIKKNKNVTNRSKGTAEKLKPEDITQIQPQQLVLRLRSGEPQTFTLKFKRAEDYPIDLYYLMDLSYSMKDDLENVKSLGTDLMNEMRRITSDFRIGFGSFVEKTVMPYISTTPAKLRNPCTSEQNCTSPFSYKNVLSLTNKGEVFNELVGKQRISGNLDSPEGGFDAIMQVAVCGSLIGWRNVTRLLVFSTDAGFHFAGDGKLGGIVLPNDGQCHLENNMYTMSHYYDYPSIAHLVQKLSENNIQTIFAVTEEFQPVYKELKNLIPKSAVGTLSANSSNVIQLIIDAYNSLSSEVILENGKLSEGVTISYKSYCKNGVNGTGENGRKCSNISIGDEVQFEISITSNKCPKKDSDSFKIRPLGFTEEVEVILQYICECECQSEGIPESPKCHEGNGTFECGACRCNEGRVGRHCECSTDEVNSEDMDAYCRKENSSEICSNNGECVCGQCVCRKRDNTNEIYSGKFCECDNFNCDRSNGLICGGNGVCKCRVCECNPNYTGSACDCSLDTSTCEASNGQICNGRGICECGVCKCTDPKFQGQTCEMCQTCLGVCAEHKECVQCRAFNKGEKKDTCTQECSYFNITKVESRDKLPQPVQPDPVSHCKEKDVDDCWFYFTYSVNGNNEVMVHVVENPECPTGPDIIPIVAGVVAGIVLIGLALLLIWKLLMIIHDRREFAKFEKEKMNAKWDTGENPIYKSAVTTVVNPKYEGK

Target: insulin-like growth factor binding protein 3 (human (endogenous in SCC-9)) (UniProt P17936)
Test: co-IP; SCC-9 cell lysates (RIPA buffer; cyclin G2 overexpressing and control cells); IGFBP3 antibody on protein A/G magnetic beads, incubated overnight, washed with PBST; western blot

Row | binding | Molecule
1 | binds | Integrin β1 (from UniProt P05556 21-798) (receptor)
2 | binds | FLAG-tagged cyclin G2 (protein, UniProt Q16589 1-344) MKDLGAEHLAGHEGVQLLGLLNVYLEQEERFQPREKGLSLIEATPENDNTLCPGLRNAKVEDLRSLANFFGSCTETFVLAVNILDRFLALMKVKPKHLSCIGVCSFLLAARIVEEDCNIPSTHDVIRISQCKCTASDIKRMEKIISEKLHYELEATTALNFLHLYHTIILCHTSERKEILSLDKLEAQLKACNCRLIFSKAKPSVLALCLLNLEVETLKSVELLEILLLVKKHSKINDTEFFYWRELVSKCLAEYSSPECCKPDLKKLVWIVSRRTAQNLHNSYYSVPELPTIPEGGCFDESESEDSCEDMSCGEESLSSSPPSDQECTFFFNFKVAQTLCFPS
